The source of these data is article PMC10617209.

Protein sequences, listed by entry. Tags and fused reporters are not part of them.
UniProt P40337: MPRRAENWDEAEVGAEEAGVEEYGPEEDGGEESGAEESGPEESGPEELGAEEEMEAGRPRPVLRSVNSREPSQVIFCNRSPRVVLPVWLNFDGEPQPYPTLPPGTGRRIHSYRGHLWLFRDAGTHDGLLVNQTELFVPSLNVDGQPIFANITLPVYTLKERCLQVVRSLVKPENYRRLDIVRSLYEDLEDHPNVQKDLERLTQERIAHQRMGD
UniProt P08050: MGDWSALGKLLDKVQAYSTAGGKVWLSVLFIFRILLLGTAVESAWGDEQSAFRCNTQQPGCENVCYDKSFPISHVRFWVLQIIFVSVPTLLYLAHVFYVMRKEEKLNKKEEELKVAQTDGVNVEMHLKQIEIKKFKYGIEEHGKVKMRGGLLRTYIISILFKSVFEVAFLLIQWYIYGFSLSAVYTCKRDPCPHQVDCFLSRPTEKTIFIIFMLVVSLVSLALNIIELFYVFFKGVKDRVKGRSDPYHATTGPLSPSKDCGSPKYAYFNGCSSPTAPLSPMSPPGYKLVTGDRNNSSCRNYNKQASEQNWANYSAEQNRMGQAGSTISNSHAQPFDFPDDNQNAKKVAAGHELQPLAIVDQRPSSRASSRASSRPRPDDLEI
UniProt P17302: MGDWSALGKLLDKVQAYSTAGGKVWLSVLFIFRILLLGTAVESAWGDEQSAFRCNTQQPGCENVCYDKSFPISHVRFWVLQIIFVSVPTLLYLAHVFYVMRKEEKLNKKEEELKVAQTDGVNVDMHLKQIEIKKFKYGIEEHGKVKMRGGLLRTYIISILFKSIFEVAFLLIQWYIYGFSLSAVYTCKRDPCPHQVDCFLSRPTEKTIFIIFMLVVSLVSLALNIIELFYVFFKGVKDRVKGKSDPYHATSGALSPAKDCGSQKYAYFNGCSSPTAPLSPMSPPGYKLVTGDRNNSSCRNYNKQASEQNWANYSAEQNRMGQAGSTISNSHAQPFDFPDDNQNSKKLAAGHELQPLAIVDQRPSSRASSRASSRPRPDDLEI

Results are given in words; binding and its absence hold for the method and conditions named. In cells and extracts the contact can be indirect. Some binding calls cover weakened binding; strength is not graded here.

Test [1] concerns the target T1, mixed lineage kinase domain-like protein (MLKL), rat, endogenous in thalamic VPN (rat (endogenous in Sprague-Dawley rat thalamus)) (UniProt D3ZKP6).
T1 sequence: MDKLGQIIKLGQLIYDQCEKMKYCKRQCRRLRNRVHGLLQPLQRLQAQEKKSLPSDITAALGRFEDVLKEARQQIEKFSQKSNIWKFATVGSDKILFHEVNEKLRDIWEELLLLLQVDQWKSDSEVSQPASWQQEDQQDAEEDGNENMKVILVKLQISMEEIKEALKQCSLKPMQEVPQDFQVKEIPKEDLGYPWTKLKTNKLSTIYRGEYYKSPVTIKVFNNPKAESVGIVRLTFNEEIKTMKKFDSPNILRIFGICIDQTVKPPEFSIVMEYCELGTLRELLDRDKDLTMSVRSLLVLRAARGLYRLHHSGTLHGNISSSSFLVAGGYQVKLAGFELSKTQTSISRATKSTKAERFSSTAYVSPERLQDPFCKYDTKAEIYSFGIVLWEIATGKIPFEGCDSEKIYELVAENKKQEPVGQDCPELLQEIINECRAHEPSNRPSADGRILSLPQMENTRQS
Nature of the test: co-IP; lysate of rat thalamic VPN, Sham and 2 weeks after dMCAO; antibody on Dynabeads, incubated with the extract at 4 °C for 2 h, washed thrice with PBST; Western blot. On the technique in general: Immunoblotting shows a protein as a band on a membrane.

In test [2] the target is human Von Hippel-Lindau (VHL), coding sequence in plasmid CMV-MCS-V5-SV40-neomycin (human) (UniProt P40337). Nature of the test: co-IP; lysate of SH-SY5Y cells transfected with plasmids (MLKL WT or S454A, Cx43, VHL), without or with TSZ for 10 h; antibody on Dynabeads, 4 °C for 2 h, washed thrice with PBST; Western blot.

On to “connexin 43 (Cx43), rat, endogenous in thalamic VPN (from UniProt P08050 1-382)”, for which the binding entry in test [1] is “binds”. As for “human connexin 43 (Cx43, GJA1) (WT), full-length coding sequence in plasmid CMV-MCS-Myc-SV40-neomycin (from UniProt P17302 1-382)”, the binding result in test [2] is recorded as “binds”.
